{"source": "the supplement of paper PMC8728848", "binders": {"B1": {"name": "GS7807F-bth-514-18-514 (Bacteroides thetaiotaomicron) (protein)", "chain": "AGSCTGNFEEYNTNQFQIHEADPSTLMKSMIETIVNIQQNDSQMMDQMVGQLGGYLTCANVWSGTNFGTFNQSDAWNAGPWNTNFEKIYGNFFQIQEATNESGHYYAFARMIRAITMLRVADCYGPMPYSQVKKGNFYVAYDTEEQVYKNIMEDFASAANVLYNYYKDTNGNAPLASNDPVFSGNYANWARLANSMRLRVAIRISTAYPEMAKENAEAAASHEAGLIEANNDNAMMDCGSQTNPYQLAAVSWGDLRVNANIVDYMNGYGDPRMSKYFNHSTFTGHTQEYVGMRSGEDGFAKSDVAGYSIPAITGTSKLLVFCAAETAFLRAEGKLKNWSVGNKSAKEYYEEGIKLSMEQYGTTMPDNYLTNTEKPTVSHNNDPRGHAYTISNTVAVAWNDNNEEENLQRIITQKWIANYPLGLEAWAEYRRTGYPELYPCIDNLSPSGVDSKRGMRRLRFPYTEVQNNHSNYQQGVSYLKNGGPDNEATDLSWGKTN"}}, "test_in_all_cases": "glycan array binding signal (z-score within array); higher = stronger binding", "settings_in_all_cases": "glycan notation: IUPAC condensed, linker removed", "key": {"Glc(b1-6)Glc": {"target": "Glc(b1-6)Glc", "method_in_brief": "(§1)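 The Consortium for Functional Glycomics database supplied 3228 glycan arrays, of which those lacking an available protein sequence were dropped. The binding signal, a within-array Z-score, was averaged across arrays of the same protein sequence and across linkers. Negative scores can be read as non-binding.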"}, "GlcA(b1-3)Gal": {"target": "GlcA(b1-3)Gal", "method_in_brief": "as §1"}, "GlcA(b1-3)GlcNAc": {"target": "GlcA(b1-3)GlcNAc", "method_in_brief": "as §1"}, "GlcA(b1-6)Gal": {"target": "GlcA(b1-6)Gal", "method_in_brief": "as §1"}, "[1]": {"target": "GlcA3S(b1-3)Gal(b1-4)GlcNAc(b1-2)Man", "method_in_brief": "as §1"}, "[2]": {"target": "GlcA3S(b1-3)Gal(b1-4)GlcNAc(b1-3)Gal(b1-4)Glc", "method_in_brief": "as §1"}, "[3]": {"target": "GlcNAc(a1-3)Gal(b1-4)GlcNAc", "method_in_brief": "as §1"}, "[4]": {"target": "GlcNAc(a1-4)Gal(b1-3)GlcNAc", "method_in_brief": "as §1"}, "[5]": {"target": "GlcNAc(a1-4)Gal(b1-4)GalNAc", "method_in_brief": "as §1"}, "[6]": {"target": "GlcNAc(a1-4)Gal(b1-4)GlcNAc", "method_in_brief": "as §1"}, "[7]": {"target": "GlcNAc(a1-4)Gal(b1-4)GlcNAc(b1-3)Gal(b1-4)Glc", "method_in_brief": "as §1"}, "[8]": {"target": "GlcNAc(a1-4)Gal(b1-4)GlcNAc(b1-3)Gal(b1-4)GlcNAc", "method_in_brief": "as §1"}, "[9]": {"target": "GlcNAc(a1-4)Gal(b1-4)GlcNAc(b1-3)Gal(b1-4)GlcNAc(b1-3)Gal(b1-4)GlcNAc", "method_in_brief": "as §1"}, "[10]": {"target": "GlcNAc(a1-4)Gal(b1-4)GlcNAc(b1-3)Gal(b1-4)[Fuc(a1-3)]GlcNAc(b1-3)Gal(b1-4)[Fuc(a1-3)]GlcNAc", "method_in_brief": "as §1"}, "[11]": {"target": "GlcNAc(a1-6)Gal(b1-4)GlcNAc", "method_in_brief": "as §1"}, "[12]": {"target": "GlcNAc(b1-2)Gal(b1-3)GalNAc", "method_in_brief": "as §1"}, "[13]": {"target": "GlcNAc(b1-2)Man(a1-3)[GlcNAc(b1-2)Man(a1-6)]Man(b1-4)GlcNAc(b1-4)GlcNAc", "method_in_brief": "as §1"}, "[14]": {"target": "GlcNAc(b1-2)Man(a1-3)[GlcNAc(b1-2)Man(a1-6)]Man(b1-4)GlcNAc(b1-4)[Fuc(a1-6)]GlcNAc", "method_in_brief": "as §1"}, "[15]": {"target": "GlcNAc(b1-2)Man(a1-3)[GlcNAc(b1-4)][GlcNAc(b1-2)Man(a1-6)]Man(b1-4)GlcNAc(b1-4)GlcNAc", "method_in_brief": "as §1"}, "[16]": {"target": "GlcNAc(b1-2)Man(a1-3)[GlcNAc(b1-4)][GlcNAc(b1-2)Man(a1-6)]Man(b1-4)GlcNAc(b1-4)[Fuc(a1-6)]GlcNAc", "method_in_brief": "as §1"}, "[17]": {"target": "GlcNAc(b1-2)[GlcNAc(b1-4)]Man(a1-3)[GlcNAc(b1-2)Man(a1-6)]Man(b1-4)GlcNAc(b1-4)GlcNAc", "method_in_brief": "as §1"}, "[18]": {"target": "GlcNAc(b1-2)[GlcNAc(b1-4)]Man(a1-3)[GlcNAc(b1-4)][GlcNAc(b1-2)Man(a1-6)]Man(b1-4)GlcNAc(b1-4)GlcNAc", "method_in_brief": "as §1"}, "[19]": {"target": "GlcNAc(b1-2)[GlcNAc(b1-4)]Man(a1-3)[GlcNAc(b1-4)][GlcNAc(b1-2)[GlcNAc(b1-6)]Man(a1-6)]Man(b1-4)GlcNAc(b1-4)GlcNAc", "method_in_brief": "as §1"}, "[20]": {"target": "GlcNAc(b1-2)[GlcNAc(b1-4)]Man(a1-3)[GlcNAc(b1-4)][GlcNAc(b1-2)[GlcNAc(b1-6)]Man(a1-6)]Man(b1-4)GlcNAc(b1-4)[Fuc(a1-6)]GlcNAc", "method_in_brief": "as §1"}, "[21]": {"target": "GlcNAc(b1-2)[GlcNAc(b1-6)]Man(a1-6)[GlcNAc(b1-2)Man(a1-3)]Man(b1-4)GlcNAc(b1-4)GlcNAc", "method_in_brief": "as §1"}, "[22]": {"target": "GlcNAc(b1-2)[GlcNAc(b1-6)]Man(a1-6)[GlcNAc(b1-2)Man(a1-3)]Man(b1-4)GlcNAc(b1-4)[Fuc(a1-6)]GlcNAc", "method_in_brief": "as §1"}, "[23]": {"target": "GlcNAc(b1-2)[GlcNAc(b1-6)]Man(a1-6)[GlcNAc(b1-4)][GlcNAc(b1-2)Man(a1-3)]Man(b1-4)GlcNAc(b1-4)GlcNAc", "method_in_brief": "as §1"}, "GlcNAc(b1-3)Fuc": {"target": "GlcNAc(b1-3)Fuc", "method_in_brief": "as §1"}, "GlcNAc(b1-3)Gal": {"target": "GlcNAc(b1-3)Gal", "method_in_brief": "as §1"}, "[24]": {"target": "GlcNAc(b1-3)Gal(b1-3)GalNAc", "method_in_brief": "as §1"}, "GlcNAc(b1-3)Gal(b1-4)Glc": {"target": "GlcNAc(b1-3)Gal(b1-4)Glc", "method_in_brief": "as §1"}, "[25]": {"target": "GlcNAc(b1-3)Gal(b1-4)GlcNAc", "method_in_brief": "as §1"}, "[26]": {"target": "GlcNAc(b1-3)Gal(b1-4)GlcNAc(b1-2)Man(a1-3)[GlcNAc(b1-3)Gal(b1-4)GlcNAc(b1-2)Man(a1-6)]Man(b1-4)GlcNAc(b1-4)GlcNAc", "method_in_brief": "as §1"}, "[27]": {"target": "GlcNAc(b1-3)Gal(b1-4)GlcNAc(b1-2)Man(a1-3)[GlcNAc(b1-3)Gal(b1-4)GlcNAc(b1-2)Man(a1-6)]Man(b1-4)GlcNAc(b1-4)[Fuc(a1-6)]GlcNAc", "method_in_brief": "as §1"}, "[28]": {"target": "GlcNAc(b1-3)Gal(b1-4)GlcNAc(b1-2)[GlcNAc(b1-3)Gal(b1-4)GlcNAc(b1-6)]Man(a1-6)[GlcNAc(b1-3)Gal(b1-4)GlcNAc(b1-2)Man(a1-3)]Man(b1-4)GlcNAc(b1-4)GlcNAc", "method_in_brief": "as §1"}, "[29]": {"target": "GlcNAc(b1-3)Gal(b1-4)GlcNAc(b1-3)Gal(b1-4)GlcNAc", "method_in_brief": "as §1"}, "[30]": {"target": "GlcNAc(b1-3)Gal(b1-4)GlcNAc(b1-3)Gal(b1-4)GlcNAc(b1-2)Man(a1-3)[GlcNAc(b1-3)Gal(b1-4)GlcNAc(b1-3)Gal(b1-4)GlcNAc(b1-2)Man(a1-6)]Man(b1-4)GlcNAc(b1-4)GlcNAc", "method_in_brief": "as §1"}}, "note": "The list shows a part of the results."}
{"binder": "B1", "values": [{"measurement": "glycan array binding signal (z-score)", "setting": "Glc(b1-6)Glc", "result": -0.876}, {"measurement": "glycan array binding signal (z-score)", "setting": "GlcA(b1-3)Gal", "result": 0.37}, {"measurement": "glycan array binding signal (z-score)", "setting": "GlcA(b1-3)GlcNAc", "result": -0.624}, {"measurement": "glycan array binding signal (z-score)", "setting": "GlcA(b1-6)Gal", "result": 0.611}, {"measurement": "glycan array binding signal (z-score)", "setting": "[1]", "result": -0.771}, {"measurement": "glycan array binding signal (z-score)", "setting": "[2]", "result": -0.835}, {"measurement": "glycan array binding signal (z-score)", "setting": "[3]", "result": -0.915}, {"measurement": "glycan array binding signal (z-score)", "setting": "[4]", "result": -0.124}, {"measurement": "glycan array binding signal (z-score)", "setting": "[5]", "result": 0.105}, {"measurement": "glycan array binding signal (z-score)", "setting": "[6]", "result": -0.867}, {"measurement": "glycan array binding signal (z-score)", "setting": "[7]", "result": -0.587}, {"measurement": "glycan array binding signal (z-score)", "setting": "[8]", "result": -0.023}, {"measurement": "glycan array binding signal (z-score)", "setting": "[9]", "result": -0.902}, {"measurement": "glycan array binding signal (z-score)", "setting": "[10]", "result": -0.016}, {"measurement": "glycan array binding signal (z-score)", "setting": "[11]", "result": -0.667}, {"measurement": "glycan array binding signal (z-score)", "setting": "[12]", "result": -0.792}, {"measurement": "glycan array binding signal (z-score)", "setting": "[13]", "result": -0.78}, {"measurement": "glycan array binding signal (z-score)", "setting": "[14]", "result": -0.346}, {"measurement": "glycan array binding signal (z-score)", "setting": "[15]", "result": -0.913}, {"measurement": "glycan array binding signal (z-score)", "setting": "[16]", "result": -0.886}, {"measurement": "glycan array binding signal (z-score)", "setting": "[17]", "result": -0.837}, {"measurement": "glycan array binding signal (z-score)", "setting": "[18]", "result": -0.9}, {"measurement": "glycan array binding signal (z-score)", "setting": "[19]", "result": -0.913}, {"measurement": "glycan array binding signal (z-score)", "setting": "[20]", "result": -0.898}, {"measurement": "glycan array binding signal (z-score)", "setting": "[21]", "result": -0.73}, {"measurement": "glycan array binding signal (z-score)", "setting": "[22]", "result": -0.75}, {"measurement": "glycan array binding signal (z-score)", "setting": "[23]", "result": -0.874}, {"measurement": "glycan array binding signal (z-score)", "setting": "GlcNAc(b1-3)Fuc", "result": -0.396}, {"measurement": "glycan array binding signal (z-score)", "setting": "GlcNAc(b1-3)Gal", "result": -0.877}, {"measurement": "glycan array binding signal (z-score)", "setting": "[24]", "result": -0.456}, {"measurement": "glycan array binding signal (z-score)", "setting": "GlcNAc(b1-3)Gal(b1-4)Glc", "result": -0.764}, {"measurement": "glycan array binding signal (z-score)", "setting": "[25]", "result": -0.881}, {"measurement": "glycan array binding signal (z-score)", "setting": "[26]", "result": -0.352}, {"measurement": "glycan array binding signal (z-score)", "setting": "[27]", "result": 0.175}, {"measurement": "glycan array binding signal (z-score)", "setting": "[28]", "result": 0.143}, {"measurement": "glycan array binding signal (z-score)", "setting": "[29]", "result": -0.802}, {"measurement": "glycan array binding signal (z-score)", "setting": "[30]", "result": -0.17}]}
